Laboratory results reported in publication PMC5868845.
Where a chain is given by its changes, count along the chain named. These are yes or no findings as the source states them, for the method shown. Binding seen in cells or lysates may run through a third protein. Some binding calls cover weakened binding; strength is not graded here. For some of these results: Tags and fused reporters may be left off the sequences shown.

How the values were obtained:
Assay in all cases: co-IP; 293FT cells transfected with the indicated plasmids (Girdin NT or CT domain; Flag-NT wild type or mutants), co-IP from lysate in IP lysis buffer, western blot
[1] = molecular target: T1, Flag-tagged Girdin NT domain S233A/S237A (AA) (human) (UniProt Q3V6T2)
T1 sequence: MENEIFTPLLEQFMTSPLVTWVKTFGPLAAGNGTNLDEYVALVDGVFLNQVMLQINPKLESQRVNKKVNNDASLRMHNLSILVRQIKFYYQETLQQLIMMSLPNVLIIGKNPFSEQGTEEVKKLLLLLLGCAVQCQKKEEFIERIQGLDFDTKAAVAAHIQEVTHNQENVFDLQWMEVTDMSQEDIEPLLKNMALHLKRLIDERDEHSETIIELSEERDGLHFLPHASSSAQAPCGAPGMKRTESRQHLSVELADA

[2] = molecular target: T2, Flag-tagged Girdin NT domain S233A (human) (UniProt Q3V6T2)
T2 sequence: T1 sequence with A237S

[3] = molecular target: T3, Girdin amino terminal (NT) domain, expressed in 293FT cells for domain mapping (Fig 1E) (human) (UniProt Q3V6T2)
T3 sequence: T1 sequence with A233S, A237S

[4] = molecular target: T4, Flag-tagged Girdin NT domain S237A (human) (UniProt Q3V6T2)
T4 sequence: T1 sequence with A233S

- binding [1]: no binding
- binding [2]: no binding
- binding [3]: binds
- binding [4]: no binding
Substance: 4F2hc in lysates of 293FT cells transfected with Girdin domain plasmids (Fig 1E, Fig 2F) (from UniProt P08195 1-529)
